Test results from publication PMC5561029.
No constants are given. Whether binding was seen depends on the method and setting. Some entries that bind do so weakly or less than the wild type.

Amino acid sequences for entries named in this document (tags omitted).
UniProt P42224: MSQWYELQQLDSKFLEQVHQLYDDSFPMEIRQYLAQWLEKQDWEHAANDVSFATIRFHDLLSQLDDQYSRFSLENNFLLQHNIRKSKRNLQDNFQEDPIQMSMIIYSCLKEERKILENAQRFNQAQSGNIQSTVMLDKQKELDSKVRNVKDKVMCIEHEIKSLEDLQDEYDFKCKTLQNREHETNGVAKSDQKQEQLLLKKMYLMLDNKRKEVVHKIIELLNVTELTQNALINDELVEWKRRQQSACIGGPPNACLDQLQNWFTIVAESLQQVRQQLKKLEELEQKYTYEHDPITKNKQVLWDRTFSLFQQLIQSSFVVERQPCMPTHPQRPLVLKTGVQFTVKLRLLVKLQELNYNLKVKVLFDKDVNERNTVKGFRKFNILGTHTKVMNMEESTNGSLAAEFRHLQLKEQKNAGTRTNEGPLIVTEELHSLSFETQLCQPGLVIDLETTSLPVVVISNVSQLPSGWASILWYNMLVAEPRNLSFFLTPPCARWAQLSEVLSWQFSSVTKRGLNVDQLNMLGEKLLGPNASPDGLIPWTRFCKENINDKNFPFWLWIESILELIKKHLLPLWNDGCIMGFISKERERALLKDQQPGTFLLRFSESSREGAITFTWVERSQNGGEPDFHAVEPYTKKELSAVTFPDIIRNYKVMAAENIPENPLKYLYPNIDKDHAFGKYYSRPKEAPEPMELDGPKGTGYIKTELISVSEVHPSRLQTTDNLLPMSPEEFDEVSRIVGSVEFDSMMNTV
UniProt P05412: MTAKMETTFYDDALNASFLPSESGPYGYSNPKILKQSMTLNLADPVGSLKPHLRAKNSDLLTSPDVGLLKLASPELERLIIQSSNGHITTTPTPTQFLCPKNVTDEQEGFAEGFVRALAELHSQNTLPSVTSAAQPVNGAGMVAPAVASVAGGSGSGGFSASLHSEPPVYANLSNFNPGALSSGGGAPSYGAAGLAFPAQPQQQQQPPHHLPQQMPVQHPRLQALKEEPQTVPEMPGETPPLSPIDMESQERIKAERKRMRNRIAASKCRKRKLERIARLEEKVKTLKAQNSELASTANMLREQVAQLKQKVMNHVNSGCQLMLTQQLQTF

Molecular target: signal transducer and activator of transcription 1 (STAT-1) (human (endogenous in HepG2 or SW480)) (UniProt P42224)
Assay: native gel or EMSA; nuclear extracts (5 ug) incubated 20 min at RT with 32P-labelled MMP-1 or MMP-3 promoter oligonucleotides in 20 mM HEPES pH 7.8, 1 mM MgCl2, 0.5 mM DTT, 40-80 mM KCl, 5% glycerol; antibodies to STAT-1, STAT-3, STAT-5, c-Jun or pan-Fos added for supershift or blocking; the complex is seen on DNA

Question: How did the binding turn out when c-Jun (from UniProt P05412 1-331) was run?
Answer: Its binding is “binds”.
